Reference: PubChem BioAssay AID686938 (Drosophila RNAi Screening Center, 2013)
The screen tested about 23,000 reagents; this is an unselected part of those with a known target gene and a result. Over the whole deposit, 75 (0.33%) got an active call. 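Raw plate signals without normalisation; calls rest on plate z-scores that were not deposited; ratio present for only 364 wells.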 Names joined by + are all predicted targets of the reagent. Not given: the dose of the treatment.

Test: 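Looking for CRAC channel components and the factors controlling them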 (primary screen)
Cell system: Drosophila S2R+ cells
Knock-down reagent: long dsRNA against Drosophila genes, about 0.25 µg dsRNA per well, roughly 10,000 cells
Timing: 5 days of knock-down before the calcium assay
Conditions: thapsigargin (SERCA pump blocker) to empty calcium stores; entry signal taken 4 min after adding it
Read-out: 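Duplicate raw fluo-4 intensities per well from a plate reader, at rest and four minutes after thapsigargin emptied calcium stores; entry-to-rest ratio filled for only some wells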
Scale: calcium entry signal: higher = stronger calcium signal after store depletion; entry to resting ratio: higher = more calcium entry relative to resting level; resting calcium signal: higher = higher resting calcium signal
Call rule: 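Called when the plate z-score of the entry-to-rest ratio, mean of duplicates, falls below −3; wells with low overall dye signal (Fmax z below −2) or more than five off-targets excluded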
Calls: active = strongly reduced calcium entry; inactive = no strong reduction

target gene | dsRNA | calcium entry signal, replicate 1 (fluorescence units) | calcium entry signal, replicate 2 (fluorescence units) | entry to resting ratio | resting calcium signal, replicate 1 (fluorescence units) | resting calcium signal, replicate 2 (fluorescence units) | activity call
CG12003 (GeneID 38183) | DRSC08214 | 4.18e7 | 5.08e7 | – | 2.11e7 | 2.18e7 | inactive
CG15922 (GeneID 50048) | DRSC15128 | 3.94e7 | 3.59e7 | – | 5.70e7 | 1.71e7 | inactive
CG10428 (GeneID 35150) | DRSC02054 | 4.23e7 | – | – | 1.95e7 | – | inactive
CG33255 (retired record) + CR42842 + hpRNA:CR32205 + 1 more | DRSC09617 | 3.55e7 | 3.42e7 | – | 1.76e7 | 1.66e7 | inactive
CG40045 (GeneID 3355079) | DRSC21232 | 4.36e7 | 3.41e7 | – | 2.19e7 | 1.66e7 | inactive
Rab8 (GeneID 40168) | DRSC11261 | 2.76e7 | 4.08e7 | – | 1.31e7 | 2.66e7 | inactive
CG31345 (GeneID 41576) | DRSC14193 | 4.42e7 | 3.10e7 | – | 1.90e7 | 1.45e7 | inactive
CG31345 (GeneID 41576) | DRSC14847 | 3.42e7 | 3.25e7 | – | 1.68e7 | 1.72e7 | inactive
mthl4 (GeneID 36960) | DRSC06998 | 5.34e7 | 5.37e7 | – | 2.06e7 | 2.48e7 | inactive
trio (GeneID 43974) | DRSC07928 | 3.13e7 | 2.37e7 | – | 1.49e7 | 1.11e7 | inactive
trio (GeneID 43974) | DRSC08527 | 2.16e7 | 1.88e7 | – | 1.36e7 | 1.19e7 | inactive
trio (GeneID 43974) | DRSC08740 | 1.85e7 | 2.59e7 | – | 9.86e6 | 1.25e7 | inactive
CG11837 (GeneID 43429) | DRSC14397 | 2.05e7 | 2.27e7 | – | 1.05e7 | 1.22e7 | inactive
Mkp + CG34140 | DRSC08585 | 4.21e7 | 4.24e7 | – | 1.92e7 | 2.06e7 | inactive
CG14125 (GeneID 39359) | DRSC10129 | 3.23e7 | 3.76e7 | – | 1.62e7 | 1.80e7 | inactive
unc (GeneID 33093) | DRSC20511 | 4.43e7 | 4.31e7 | – | 2.33e7 | 2.07e7 | inactive
squ (GeneID 2768920) | DRSC01549 | 2.03e7 | 3.23e7 | – | 1.20e7 | 1.48e7 | inactive
CG18596 (GeneID 42622) | DRSC15355 | 4.00e7 | 3.25e7 | – | 1.90e7 | 1.49e7 | inactive
CG15152 (GeneID 35082) | DRSC02453 | 4.33e7 | 3.35e7 | – | 2.00e7 | 1.68e7 | inactive
CG1835 (GeneID 33057) | DRSC20560 | 5.74e7 | 4.63e7 | – | 2.73e7 | 2.09e7 | inactive
oxt (GeneID 38288) | DRSC08522 | 4.60e7 | 3.95e7 | – | 2.13e7 | 2.00e7 | inactive
Fcp1 (GeneID 37925) | DRSC04121 | 3.61e7 | – | – | 1.88e7 | – | inactive
CG32459 (GeneID 40502) | DRSC11852 | 2.57e7 | 3.47e7 | – | 1.22e7 | 1.52e7 | inactive
Polr2M (GeneID 42309) | DRSC15513 | 2.19e7 | 2.58e7 | – | 3.68e7 | 1.25e7 | inactive
Bre1 (GeneID 38652) | DRSC09742 | 2.94e7 | 2.20e7 | – | 2.05e7 | 9.49e6 | inactive
gce (GeneID 32457) | DRSC19613 | 1.68e7 | 1.93e7 | – | 9.81e6 | 9.83e6 | inactive
gce (GeneID 32457) | DRSC19974 | 1.78e7 | 2.39e7 | – | 9.78e6 | 9.75e6 | inactive
Hsc70-2 (GeneID 41609) | DRSC16710 | 2.38e7 | 4.70e7 | – | 1.16e7 | 2.64e7 | inactive
CG18605 (GeneID 37189) | DRSC06772 | 4.71e7 | 3.64e7 | – | 2.06e7 | 1.81e7 | inactive
Ent1 (GeneID 33207) | DRSC00330 | 3.65e7 | – | – | 2.08e7 | – | inactive
CG9123 (GeneID 32462) | DRSC20156 | 1.81e7 | 2.35e7 | – | 1.05e7 | 1.10e7 | inactive
Vha16-5 (GeneID 34482) | DRSC02986 | 2.22e7 | 2.94e7 | – | 1.07e7 | 1.28e7 | inactive

Looked up above.
Under “resting calcium signal, replicate 2 (fluorescence units)”, mthl4 (GeneID 36960) [DRSC06998] shows 2.48e7
Entry for CG15922 (GeneID 50048) [DRSC15128] in “activity call”: inactive
CG14125 (GeneID 39359) [DRSC10129], resting calcium signal, replicate 1 (fluorescence units) = 1.62e7
Under “resting calcium signal, replicate 2 (fluorescence units)”, oxt (GeneID 38288) [DRSC08522] shows 2.00e7
For “calcium entry signal, replicate 1 (fluorescence units)”, CG12003 (GeneID 38183) [DRSC08214] reads 4.18e7
Entry for Bre1 (GeneID 38652) [DRSC09742] in “activity call”: inactive

The listing continues.
target gene | dsRNA | calcium entry signal, replicate 1 (fluorescence units) | calcium entry signal, replicate 2 (fluorescence units) | entry to resting ratio | resting calcium signal, replicate 1 (fluorescence units) | resting calcium signal, replicate 2 (fluorescence units) | activity call
CG6059 (GeneID 43270) | DRSC15958 | 4.31e7 | 4.76e7 | – | 1.99e7 | 2.18e7 | inactive
mRpS18A (GeneID 326141) | DRSC14369 | 5.02e7 | 3.19e7 | – | 2.29e7 | 1.50e7 | inactive
Pgant8 (GeneID 39715) | DRSC10801 | 3.76e7 | 4.73e7 | – | 1.60e7 | 1.92e7 | inactive
N (GeneID 31293) | DRSC18685 | 3.51e7 | 6.11e7 | 2 | 1.72e7 | 2.46e7 | inactive
CG11180 (GeneID 37330) | DRSC06055 | 3.29e7 | 3.17e7 | – | 1.61e7 | 1.70e7 | inactive
lncRNA:CR9284 (GeneID 12798136) | DRSC03899 | 1.92e7 | 3.74e7 | – | 9.85e6 | 1.44e7 | inactive
lncRNA:CR9284 (GeneID 12798136) | DRSC04536 | 3.77e7 | – | – | 1.95e7 | – | inactive
Polr2C (GeneID 34796) | DRSC03415 | 1.38e7 | – | – | 9.80e6 | – | inactive
Psf1 (GeneID 38136) | DRSC08638 | 2.63e7 | 4.47e7 | – | 1.07e7 | 1.79e7 | inactive
CG13751 (GeneID 35879) | DRSC06422 | 2.61e7 | 3.52e7 | – | 1.40e7 | 1.56e7 | inactive
nht (GeneID 34902) | DRSC01976 | 3.68e7 | 3.99e7 | – | 1.59e7 | 1.90e7 | inactive
CG43740 (GeneID 31962) | DRSC17848 | 2.33e7 | 4.40e7 | – | 1.26e7 | 1.91e7 | inactive
CG43740 (GeneID 31962) | DRSC17994 | 2.16e7 | 4.29e7 | – | 1.07e7 | 1.95e7 | inactive
CG43740 (GeneID 31962) | DRSC23059 | 3.05e7 | 3.14e7 | – | 1.59e7 | 1.48e7 | inactive
CG43740 (GeneID 31962) | DRSC23267 | 7.14e7 | 2.73e7 | – | 3.19e7 | 1.20e7 | inactive
ITP (GeneID 37921) | DRSC04222 | 4.84e7 | 4.52e7 | – | 2.37e7 | 2.12e7 | inactive
chrb (GeneID 39284) | DRSC11335 | 4.36e7 | 4.34e7 | – | 2.74e7 | 2.01e7 | inactive
CG1695 (GeneID 33046) | DRSC20538 | 5.15e7 | 4.43e7 | – | 2.34e7 | 1.92e7 | inactive
Uros1 (GeneID 31817) | DRSC18191 | 3.27e7 | 3.30e7 | – | 1.64e7 | 1.54e7 | inactive
yellow-b (GeneID 35005) | DRSC03639 | 4.96e7 | – | – | 2.48e7 | – | inactive
CG15414 (GeneID 33570) | DRSC00429 | 2.77e7 | 2.94e7 | – | 1.45e7 | 1.36e7 | inactive
CG15414 (GeneID 33570) | DRSC22353 | 4.20e7 | 6.56e7 | – | 2.06e7 | 3.43e7 | inactive
eIF4E7 (GeneID 31059) | DRSC17782 | 3.99e7 | 5.51e7 | 2 | 2.00e7 | 2.25e7 | inactive
eIF4E7 (GeneID 31059) | DRSC18623 | 4.01e7 | 6.45e7 | 2 | 1.99e7 | 2.58e7 | inactive
TTLL4B (GeneID 33609) | DRSC00636 | 4.06e7 | – | – | 2.31e7 | – | inactive
CG43336 (GeneID 12798414) | DRSC15765 | 2.32e7 | 4.82e7 | – | 1.28e7 | 5.91e7 | inactive
CG31681 (GeneID 318882) | DRSC00107 | 2.96e7 | 3.05e7 | – | 1.67e7 | 1.36e7 | inactive
Tim17b1 (GeneID 40635) | DRSC12179 | 3.61e7 | 3.38e7 | – | 1.93e7 | 1.72e7 | inactive
emb (GeneID 34167) | DRSC03528 | 3.06e7 | – | – | 2.18e7 | – | inactive
ppk6 (GeneID 37286) | DRSC06062 | 5.88e7 | 6.19e7 | – | 2.44e7 | 3.09e7 | inactive
chas (GeneID 32748) | DRSC19508 | 2.48e7 | 3.16e7 | – | 1.38e7 | 1.36e7 | inactive
chas (GeneID 32748) | DRSC19509 | 2.69e7 | 2.94e7 | – | 1.42e7 | 1.32e7 | inactive
CG15019 (GeneID 38542) | DRSC08473 | 2.00e7 | 2.84e7 | – | 1.00e7 | 1.31e7 | inactive
MFS10 (GeneID 32263) | DRSC19888 | 3.82e7 | 3.94e7 | – | 1.80e7 | 1.86e7 | inactive
CG17375 (GeneID 33956) | DRSC02614 | 3.22e7 | 3.12e7 | – | 1.67e7 | 1.55e7 | inactive
Sprn (GeneID 39344) | DRSC10132 | 2.58e7 | 3.69e7 | – | 1.41e7 | 1.60e7 | inactive
Cyp6a17 (GeneID 45556) | DRSC07378 | 4.37e7 | 4.25e7 | – | 2.01e7 | 2.09e7 | inactive
Spn42De (GeneID 35602) | DRSC05011 | 6.10e7 | 3.67e7 | – | 3.08e7 | 1.55e7 | inactive
Fst (GeneID 41169) | DRSC16491 | 4.08e7 | 4.77e7 | – | 1.87e7 | 2.23e7 | inactive
Stoml2 (GeneID 37807) | DRSC04326 | 4.15e7 | – | – | 1.85e7 | – | inactive
CG7889 (GeneID 32916) | DRSC20066 | 4.16e7 | 3.92e7 | – | 1.97e7 | 2.00e7 | inactive
sing + Axs | DRSC19333 | 2.69e7 | 3.20e7 | – | 1.45e7 | 1.39e7 | inactive
CG31274 + MESK4 | DRSC13202 | 4.01e7 | 3.85e7 | – | 2.39e7 | 1.88e7 | inactive
